Article PMC7819943, “Rice protein-binding microarrays: a tool to detect cis-acting elements near promoter regions in rice”
Some of the results follow.

Sequences of proteins named here, by UniProt entry; tags and fusion partners are left off.
UniProt Q0JBA9, entry or part of it: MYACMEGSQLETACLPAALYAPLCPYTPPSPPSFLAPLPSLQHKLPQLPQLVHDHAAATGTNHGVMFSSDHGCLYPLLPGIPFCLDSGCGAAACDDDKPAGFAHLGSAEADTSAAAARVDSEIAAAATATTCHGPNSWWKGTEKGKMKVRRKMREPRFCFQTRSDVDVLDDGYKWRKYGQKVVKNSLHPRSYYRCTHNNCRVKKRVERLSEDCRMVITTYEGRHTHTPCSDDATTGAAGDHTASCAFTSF

The sequences below were run against OsWRKY34 (Oryza sativa, UniProt Q0JBA9 1-250) (assay: protein-binding microarray (RPBM); PBS, 2% BSA, 51.3 ng/ul salmon testes DNA, 50 uM zinc acetate, 200 nM TF, 25 C, 1 h; high values mean tight binding). Details: protein: recombinant; tags: N-terminal polyhistidine and DsRed monomer fusion (pET32a); label: CyDye5-dUTP incorporated in the synthesized complementary strand; 3' TTTTT single-stranded linker to array surface; dsDNA, one strand shown.
Procedure, shortened: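 Polyhistidine-tagged DsRed fusions of transcription factors, joined at the N-terminus, were expressed in E. coli BL21-CodonPlus and isolated on Ni–NTA. They were incubated at 200 nM for 1 h at 25 °C on a custom Agilent array, double-stranded and BSA-blocked, in PBS with 2% BSA, salmon testes DNA and 50 µM zinc acetate. The binding signal is per-feature fluorescence intensity (arbitrary units) read on an Axon 4000B scanner after washing.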

| Sequence | binding signal |
| --- | --- |
| GTAAGTTTTACTTTCAGTGTATGAACTGTGCCCTGTATTTCGGAGTCACCTAGTGCAG | 8170 fluorescence intensity (a.u.) |
| AGAGACTGGTGATGGACTTTACTCTTTTCTTCTCCAACACCGGAGTCACCTAGTGCAG | 8330 fluorescence intensity (a.u.) |
| GAGCAGACACATTCTCTCTCGCTCTCTCTATCTTTTTTTTCGGAGTCACCTAGTGCAG | 11900 fluorescence intensity (a.u.) |
| TTCGCTGCCCGTATACCATTGACCTAGCTTACTACCGTACCGGAGTCACCTAGTGCAG | 10000 fluorescence intensity (a.u.) |
| GGAGGGAGTAAGTGTTAAAATATGTGTGTTTTTCTGTAACCGGAGTCACCTAGTGCAG | 8750 fluorescence intensity (a.u.) |
| CCTCGCCGCTTCGCTTCGCTTCACCCTTTTTCGGTTCGCTCGGAGTCACCTAGTGCAG | 13300 fluorescence intensity (a.u.) |
| TGGATCAGACTTTCCGACCTTATTTCAGTTTTAGTTTCCGCGGAGTCACCTAGTGCAG | 9500 fluorescence intensity (a.u.) |
| AATATTGGACTGTGATTCACATGTTAGATGTTTTCTCGCCCGGAGTCACCTAGTGCAG | 8330 fluorescence intensity (a.u.) |
| AACTGATCTCCTCCTACTCCCCGGCCGCCGCGGCGCCGTCCGGAGTCACCTAGTGCAG | 8160 fluorescence intensity (a.u.) |
| CAAGCGCGCCCGCCTTCAAATTTTCGGCCAAATATTCCCGCGGAGTCACCTAGTGCAG | 8390 fluorescence intensity (a.u.) |
| ACATGCCTGCGCCTTTGACCTTCCTGTGAGATGAACACGTCGGAGTCACCTAGTGCAG | 11200 fluorescence intensity (a.u.) |
| CCTCCCACGCCGCCACCCGCGCCCTGATGTCCGCGTCCGTCGGAGTCACCTAGTGCAG | 8250 fluorescence intensity (a.u.) |
| GCATCAACCCACATCAAACATTCCACACAACATATAATTCCGGAGTCACCTAGTGCAG | 8860 fluorescence intensity (a.u.) |
| TCTGGAACATATCCTCTCTCCAATCACGCCCATTTCCATTCGGAGTCACCTAGTGCAG | 9070 fluorescence intensity (a.u.) |
| GTAGGTGTTAATTAGCTTTAGGTGTCTTTGTTCCGCGGCCCGGAGTCACCTAGTGCAG | 8270 fluorescence intensity (a.u.) |
| TCGGTTTGTCAGTTTCTCTGTTCTTTTTTACTGGATTGCACGGAGTCACCTAGTGCAG | 10500 fluorescence intensity (a.u.) |
| ACACGACCCAAATACACTAGTGCGCTGACTGTTTTTTTACCGGAGTCACCTAGTGCAG | 8590 fluorescence intensity (a.u.) |
| CCCGGCTCATATTCTTCTATGATAATACATGATTATCTAACGGAGTCACCTAGTGCAG | 11300 fluorescence intensity (a.u.) |
| GCTGCTACTTTTTTTTTAAACTCTAAAAACATCTTGGCTACGGAGTCACCTAGTGCAG | 8850 fluorescence intensity (a.u.) |
| AATCCACACCTTGTTGTGGTGCTAACTGCTGCATGCCTTTCGGAGTCACCTAGTGCAG | 9940 fluorescence intensity (a.u.) |
| GTACAGTGACAGCCCATCTCCTCCACCTCGCCGTCGTTGTCGGAGTCACCTAGTGCAG | 10600 fluorescence intensity (a.u.) |
| TCTTGAATTTCCCGTTCACTAGTATTTCGTGAGACATATACGGAGTCACCTAGTGCAG | 8490 fluorescence intensity (a.u.) |
| AACATCTTTTTCCGTCCCGAACACAACCTAACAACTTTTCCGGAGTCACCTAGTGCAG | 9600 fluorescence intensity (a.u.) |

Copied from the list.
AACATCTTTTTCCGTCCCGAACACAACCTAACAACTTTTCCGGAGTCACCTAGTGCAG | binding signal: 9600 fluorescence intensity (a.u.)
TCTTGAATTTCCCGTTCACTAGTATTTCGTGAGACATATACGGAGTCACCTAGTGCAG | binding signal: 8490 fluorescence intensity (a.u.)
